Binding data for four molecules are collected here from publication PMC10510122.

Protein sequences, listed by entry. Tags and fused reporters are not part of them. Lines headed by an entry give the natural chain unless they say otherwise; changes in a name come on top. Residues count along the entry.
UniProt P10451, residues 17-314: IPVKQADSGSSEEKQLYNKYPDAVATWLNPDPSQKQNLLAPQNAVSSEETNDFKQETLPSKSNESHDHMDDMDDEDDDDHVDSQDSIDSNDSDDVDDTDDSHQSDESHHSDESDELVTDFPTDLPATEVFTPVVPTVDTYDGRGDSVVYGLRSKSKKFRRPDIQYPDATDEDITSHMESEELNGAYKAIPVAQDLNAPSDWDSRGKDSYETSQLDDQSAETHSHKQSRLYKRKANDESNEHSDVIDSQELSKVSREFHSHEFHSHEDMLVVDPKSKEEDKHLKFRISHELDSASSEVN
UniProt P05556: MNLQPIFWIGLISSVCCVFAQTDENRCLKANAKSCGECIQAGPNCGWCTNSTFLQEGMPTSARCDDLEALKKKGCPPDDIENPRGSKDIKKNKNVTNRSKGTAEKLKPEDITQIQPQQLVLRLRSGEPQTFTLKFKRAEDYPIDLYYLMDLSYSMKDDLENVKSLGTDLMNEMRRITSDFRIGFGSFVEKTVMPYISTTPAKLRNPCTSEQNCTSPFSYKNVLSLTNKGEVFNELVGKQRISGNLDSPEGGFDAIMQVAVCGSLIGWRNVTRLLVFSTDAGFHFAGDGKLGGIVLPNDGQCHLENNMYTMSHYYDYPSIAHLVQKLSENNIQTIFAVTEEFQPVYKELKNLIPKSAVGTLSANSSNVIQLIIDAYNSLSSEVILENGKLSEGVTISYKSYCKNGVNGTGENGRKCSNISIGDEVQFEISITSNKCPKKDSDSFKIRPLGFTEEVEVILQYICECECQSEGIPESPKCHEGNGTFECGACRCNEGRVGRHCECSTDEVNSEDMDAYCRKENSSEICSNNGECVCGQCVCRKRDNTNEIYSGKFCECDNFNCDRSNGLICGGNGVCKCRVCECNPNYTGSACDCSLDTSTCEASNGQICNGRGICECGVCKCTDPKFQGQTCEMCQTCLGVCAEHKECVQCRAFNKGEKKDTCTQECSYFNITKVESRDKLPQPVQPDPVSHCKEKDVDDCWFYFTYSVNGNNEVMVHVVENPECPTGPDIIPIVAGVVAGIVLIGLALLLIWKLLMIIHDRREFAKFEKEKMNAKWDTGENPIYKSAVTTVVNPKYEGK
UniProt O43795: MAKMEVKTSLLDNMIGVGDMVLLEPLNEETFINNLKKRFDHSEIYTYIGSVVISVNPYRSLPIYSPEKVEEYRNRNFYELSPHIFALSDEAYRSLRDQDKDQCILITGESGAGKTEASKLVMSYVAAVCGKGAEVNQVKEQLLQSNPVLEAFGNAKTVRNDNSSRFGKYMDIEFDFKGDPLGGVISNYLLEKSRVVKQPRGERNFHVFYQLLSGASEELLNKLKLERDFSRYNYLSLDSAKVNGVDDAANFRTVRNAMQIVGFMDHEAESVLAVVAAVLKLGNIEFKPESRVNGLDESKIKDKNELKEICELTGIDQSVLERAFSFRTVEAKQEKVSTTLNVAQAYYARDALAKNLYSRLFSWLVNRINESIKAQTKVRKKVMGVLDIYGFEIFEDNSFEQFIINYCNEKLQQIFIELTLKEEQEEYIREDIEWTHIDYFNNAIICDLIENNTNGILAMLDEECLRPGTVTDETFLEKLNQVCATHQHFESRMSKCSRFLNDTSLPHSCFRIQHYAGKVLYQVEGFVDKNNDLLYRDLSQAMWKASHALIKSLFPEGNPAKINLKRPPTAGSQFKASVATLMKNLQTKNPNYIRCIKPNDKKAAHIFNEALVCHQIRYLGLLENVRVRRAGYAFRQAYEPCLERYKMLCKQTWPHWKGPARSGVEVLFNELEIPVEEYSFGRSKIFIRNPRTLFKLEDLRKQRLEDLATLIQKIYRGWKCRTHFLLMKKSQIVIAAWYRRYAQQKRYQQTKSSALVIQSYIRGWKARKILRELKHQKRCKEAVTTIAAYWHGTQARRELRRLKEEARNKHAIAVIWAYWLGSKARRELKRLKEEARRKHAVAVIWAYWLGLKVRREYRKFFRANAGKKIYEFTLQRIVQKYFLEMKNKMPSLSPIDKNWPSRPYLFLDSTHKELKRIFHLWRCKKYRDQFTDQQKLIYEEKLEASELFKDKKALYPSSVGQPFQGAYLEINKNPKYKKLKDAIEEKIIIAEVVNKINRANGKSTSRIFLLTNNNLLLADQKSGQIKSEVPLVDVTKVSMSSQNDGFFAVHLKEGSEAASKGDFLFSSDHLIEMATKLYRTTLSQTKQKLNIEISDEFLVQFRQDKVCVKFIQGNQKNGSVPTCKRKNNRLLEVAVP
UniProt P16070, residues 21-742: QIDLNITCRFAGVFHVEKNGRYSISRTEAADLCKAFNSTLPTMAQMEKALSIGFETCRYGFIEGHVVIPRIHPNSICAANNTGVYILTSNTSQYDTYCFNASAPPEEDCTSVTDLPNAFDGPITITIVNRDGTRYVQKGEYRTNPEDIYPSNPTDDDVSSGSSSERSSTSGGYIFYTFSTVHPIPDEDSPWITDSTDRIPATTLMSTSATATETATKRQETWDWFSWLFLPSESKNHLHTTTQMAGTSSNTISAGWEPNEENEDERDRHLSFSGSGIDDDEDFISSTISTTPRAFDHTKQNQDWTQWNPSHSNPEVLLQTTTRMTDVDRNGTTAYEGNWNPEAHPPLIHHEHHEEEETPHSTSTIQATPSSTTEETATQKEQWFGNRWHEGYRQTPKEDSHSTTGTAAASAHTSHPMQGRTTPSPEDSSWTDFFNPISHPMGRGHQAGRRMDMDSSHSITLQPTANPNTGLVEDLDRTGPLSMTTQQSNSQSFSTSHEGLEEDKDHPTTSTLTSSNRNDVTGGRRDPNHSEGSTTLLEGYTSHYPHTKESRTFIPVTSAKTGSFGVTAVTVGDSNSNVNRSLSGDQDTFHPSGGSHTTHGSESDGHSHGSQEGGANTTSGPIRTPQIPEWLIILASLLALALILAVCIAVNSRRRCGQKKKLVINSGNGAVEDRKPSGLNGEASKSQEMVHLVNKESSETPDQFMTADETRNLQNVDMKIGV

No constants are given. Whether binding was seen depends on the method and setting. Binding seen in cells or lysates may run through a third protein. A yes stands for co-enrichment or nearness to the bait. Other partners may have been found.

This test concerns the target Osteopontin (OPN), recombinant (not stated (human or mouse recombinant OPN bought)) (UniProt P10451). Briefly: affinity purification with mass spectrometry; A549 cells treated with OPN (1 μg/ml) or not for 48 h, lysed; OPN co-IP with the Thermo Scientific Pierce Co-IP kit; the co-IP protein mix analysed by mass spectrometry; only the target purified.

“ITGB1 (from UniProt P05556 21-798) (receptor)”: the binding result is recorded as “binds”.

For MYO1B (from UniProt O43795 1-1136), the binding result is listed as “binds”.

Consider “CD44 (from UniProt P16070 21-742) (receptor)”, for which the binding result is “binds”.

B1: JUP (protein, UniProt P14923 1-745)
chain: MEVMNLMEQPIKVTEWQQTYTYDSGIHSGANTCVPSVSSKGIMEEDEACGRQYTLKKTTTYTQGVPPSQGDLEYQMSTTARAKRVREAMCPGVSGEDSSLLLATQVEGQATNLQRLAEPSQLLKSAIVHLINYQDDAELATRALPELTKLLNDEDPVVVTKAAMIVNQLSKKEASRRALMGSPQLVAAVVRTMQNTSDLDTARCTTSILHNLSHHREGLLAIFKSGGIPALVRMLSSPVESVLFYAITTLHNLLLYQEGAKMAVRLADGLQKMVPLLNKNNPKFLAITTDCLQLLAYGNQESKLIILANGGPQALVQIMRNYSYEKLLWTTSRVLKVLSVCPSNKPAIVEAGGMQALGKHLTSNSPRLVQNCLWTLRNLSDVATKQEGLESVLKILVNQLSVDDVNVLTCATGTLSNLTCNNSKNKTLVTQNSGVEALIHAILRAGDKDDITEPAVCALRHLTSRHPEAEMAQNSVRLNYGIPAIVKLLNQPNQWPLVKATIGLIRNLALCPANHAPLQEAAVIPRLVQLLVKAHQDAQRHVAAGTQQPYTDGVRMEEIVEGCTGALHILARDPMNRMEIFRLNTIPLFVQLLYSSVENIQRVAAGVLCELAQDKEAADAIDAEGASAPLMELLHSRNEGTATYAAAVLFRISEDKNPDYRKRVSVELTNSLFKHDPAAWEAAQSMIPINEPYGDDMDATYRPMYSSDVPLDPLEMHMDMDGDYPIDTYSDGLRPPYPTADHMLA
On to B1, for which the binding result is reported as “binds”.
